Values from PubChem BioAssay AID1259308 (NCATS, 2017).
Test: 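Candidate targets for better recombinant protein yield in mammalian cells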 (primary screen). Cell system: human HEK293 embryonic kidney cells stably expressing firefly luciferase (HEK-CMV-Luc2-Hygro). Reagents: single siRNA against human genes, 0.8 pmol siRNA per well. Timing: 72 h. Detection: 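Reporter luminescence and viable-cell signal on separate replicate plates, given as percent of non-targeting control and median/MAD z-scores, plus per-cell luciferase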. Scale: total luciferase, z-score and total luciferase, % of control: higher = more reporter protein produced; luciferase per cell, z-score: higher = more reporter output per viable cell; viable cells, % of control: higher = more viable cells. Active means: 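Active when the median/MAD z-score for overall luciferase is greater than 3; a gene was taken forward for validation with new siRNAs if at least two of its three siRNAs passed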. Calls: active = raised luciferase; inactive = no rise.
Shown is an unselected part of about 59,000 deposited reagents. In the full data, about 1,510 (2.6%) were called active. 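Calls use total luciferase alone and ignore viability, so some active siRNAs may act by altering cell number.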 Entries without a mark were called inactive. Reagents against one gene are numbered here.

| gene | reagent | total luciferase, z-score | total luciferase, % of control | luciferase per cell, z-score | viable cells, % of control |
| --- | --- | --- | --- | --- | --- |
| CALCB (calcitonin related polypeptide beta) | 1 | 0.323 | 88.3 | -0.197 | 104 |
| CALCB (calcitonin related polypeptide beta) | 2 | -0.0997 | 79.9 | -0.209 | 94.3 |
| CALCB (calcitonin related polypeptide beta) | 3 | 0.3 | 87.8 | -0.0484 | 99.4 |
| PPP4R2 (protein phosphatase 4 regulatory subunit 2) | 1 | 1.03 | 102 | 0.455 | 102 |
| PPP4R2 (protein phosphatase 4 regulatory subunit 2) | 2 | -1.31 | 55.9 | -0.993 | 81.1 |
| PPP4R2 (protein phosphatase 4 regulatory subunit 2) | 3 | -0.377 | 74.4 | 0.149 | 79.9 |
| BEND5 (BEN domain containing 5) | 1 | -0.329 | 75.3 | -0.614 | 99 |
| BEND5 (BEN domain containing 5) | 2 | 0.682 | 95.5 | 0.295 | 98.7 |
| BEND5 (BEN domain containing 5) | 3 | -1.04 | 61.2 | -0.53 | 78.6 |
| ABCA10 (ATP binding cassette subfamily A member 10) | 1 | -1.46 | 52.8 | -0.787 | 72.6 |
| ABCA10 (ATP binding cassette subfamily A member 10) | 2 | -1.23 | 57.4 | -0.732 | 77.8 |
| ABCA10 (ATP binding cassette subfamily A member 10) | 3 | -1.18 | 58.4 | -1.2 | 89.5 |
| RYR2 (ryanodine receptor 2) | 1 | -1.13 | 59.5 | -1.31 | 93.9 |
| RYR2 (ryanodine receptor 2) | 2 | 0.253 | 86.9 | -0.12 | 100 |
| RYR2 (ryanodine receptor 2) | 3 | 0.477 | 91.4 | -0.656 | 121 |
| NOTCH4 (notch receptor 4) | 1 | -0.111 | 79.7 | -0.236 | 94.8 |
| NOTCH4 (notch receptor 4) | 2 | 0.238 | 86.6 | 0.215 | 91.5 |
| NOTCH4 (notch receptor 4) | 3 | -1.76 | 46.8 | 0.791 | 42.5 |
| TOM1 (target of myb1 membrane trafficking protein) | 1 | -0.00779 | 81.7 | -0.414 | 102 |
| TOM1 (target of myb1 membrane trafficking protein) | 2 | 1.3 | 108 | 0.156 | 116 |
| TOM1 (target of myb1 membrane trafficking protein) | 3 | -0.342 | 75.1 | -0.819 | 104 |
| FNTB (farnesyltransferase, CAAX box, subunit beta) | 1 | 0.535 | 92.5 | 0.171 | 98.8 |
| FNTB (farnesyltransferase, CAAX box, subunit beta) | 2 | -0.00329 | 81.8 | -0.118 | 94.3 |
| FNTB (farnesyltransferase, CAAX box, subunit beta) | 3 | 0.64 | 94.6 | 0.418 | 94.7 |
| PPP1R3B (protein phosphatase 1 regulatory subunit 3B) | 1 | 1.61 | 114 | 1.82 | 79 |
| PPP1R3B (protein phosphatase 1 regulatory subunit 3B) | 2 | -0.337 | 75.2 | -0.705 | 101 |
| PPP1R3B (protein phosphatase 1 regulatory subunit 3B) | 3 | 0.859 | 99 | 0.731 | 91.2 |
| DDX39B (DExD-box helicase 39B) | 1 | -0.864 | 64.7 | -1.37 | 104 |
| DDX39B (DExD-box helicase 39B) | 2 | -1.32 | 55.6 | -1.11 | 83.3 |
| DDX39B (DExD-box helicase 39B) | 3 | 1.59 | 113 | 2.06 | 73.7 |
| MGAT4A | 1 | -0.36 | 74.7 | -0.0676 | 85 |
| MGAT4A | 2 | -0.55 | 70.9 | -0.908 | 101 |
| MGAT4A | 3 | 1.13 | 104 | 1.52 | 78.3 |
| ATP13A1 (ATPase 13A1) | 1 | 0.744 | 96.7 | 0.151 | 104 |
| ATP13A1 (ATPase 13A1) | 2 | 1.07 | 103 | 0.527 | 100 |
| ATP13A1 (ATPase 13A1) | 3 | -0.058 | 80.7 | -0.48 | 102 |
| GTF2B (general transcription factor IIB) | 1 | -0.43 | 73.3 | 0.928 | 64.2 |
| GTF2B (general transcription factor IIB) | 2 | -0.389 | 74.1 | -0.104 | 85.1 |
| GTF2B (general transcription factor IIB) | 3 | -2.49 | 32.3 | -1.46 | 53 |

Laid out differently: 3 of the entries above.
gene,reagent,"total luciferase, z-score","total luciferase, % of control","luciferase per cell, z-score","viable cells, % of control"
"FNTB (farnesyltransferase, CAAX box, subunit beta)",1,0.535,92.5,0.171,98.8
"FNTB (farnesyltransferase, CAAX box, subunit beta)",2,-0.00329,81.8,-0.118,94.3
"FNTB (farnesyltransferase, CAAX box, subunit beta)",3,0.64,94.6,0.418,94.7
